Laboratory results published in publication PMC11193767.
Results are given in words; binding and its absence hold for the method and conditions named. In cells and extracts the contact can be indirect. Here binding means that the protein was enriched with, or labelled near, the bait; the list need not be complete.

By UniProt entry, the sequences of proteins in these tests, tags left out.
UniProt Q8IWT6: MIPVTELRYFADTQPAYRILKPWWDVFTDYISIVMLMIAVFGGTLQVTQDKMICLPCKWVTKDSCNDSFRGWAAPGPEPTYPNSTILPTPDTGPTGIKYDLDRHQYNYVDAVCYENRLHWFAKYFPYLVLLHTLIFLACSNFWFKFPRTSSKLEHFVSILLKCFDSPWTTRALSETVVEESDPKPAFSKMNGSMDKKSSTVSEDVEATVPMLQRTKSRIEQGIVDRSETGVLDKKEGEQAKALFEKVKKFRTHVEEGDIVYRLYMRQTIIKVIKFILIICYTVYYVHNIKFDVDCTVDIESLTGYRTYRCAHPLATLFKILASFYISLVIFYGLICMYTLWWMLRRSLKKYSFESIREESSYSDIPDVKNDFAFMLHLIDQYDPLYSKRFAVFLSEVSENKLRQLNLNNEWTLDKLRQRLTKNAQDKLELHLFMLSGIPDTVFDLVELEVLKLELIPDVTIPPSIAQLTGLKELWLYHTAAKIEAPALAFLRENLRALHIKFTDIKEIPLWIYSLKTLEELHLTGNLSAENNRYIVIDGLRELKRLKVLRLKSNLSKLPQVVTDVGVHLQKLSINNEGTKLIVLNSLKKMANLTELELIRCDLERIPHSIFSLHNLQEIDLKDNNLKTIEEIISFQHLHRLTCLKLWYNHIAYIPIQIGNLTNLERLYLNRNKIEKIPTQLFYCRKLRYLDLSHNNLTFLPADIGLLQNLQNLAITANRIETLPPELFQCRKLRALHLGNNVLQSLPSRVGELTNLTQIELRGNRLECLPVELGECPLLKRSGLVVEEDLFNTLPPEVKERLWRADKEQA

B1: STAM-binding protein (protein, UniProt O95630-1 1-424)
chain: MSDHGDVSLPPEDRVRALSQLGSAVEVNEDIPPRRYFRSGVEIIRMASIYSEEGNIEHAFILYNKYITLFIEKLPKHRDYKSAVIPEKKDTVKKLKEIAFPKAEELKAELLKRYTKEYTEYNEEKKKEAEELARNMAIQQELEKEKQRVAQQKQQQLEQEQFHAFEEMIRNQELEKERLKIVQEFGKVDPGLGGPLVPDLEKPSLDVFPTLTVSSIQPSDCHTTVRPAKPPVVDRSLKPGALSNSESIPTIDGLRHVVVPGRLCPQFLQLASANTARGVETCGILCGKLMRNEFTITHVLIPKQSAGSDYCNTENEEELFLIQDQQGLITLGWIHTHPTQTAFLSSVDLHTHCSYQMMLPESVAIVCSPKFQETGFFKLTDHGLEEISSCRQKGFHPHSKDPPLFCSCSHVTVVDRAVTITDLR
B2: Protein SGT1 homolog (protein, UniProt Q9Y2Z0-1 1-365)
chain: MAAAAAGTATSQRFFQSFSDALIDEDPQAALEELTKALEQKPDDAQYYCQRAYCHILLGNYCVAVADAKKSLELNPNNSTAMLRKGICEYHEKNYAAALETFTEGQKLDIETGFHRVGQAGLQLLTSSDPPALDSQSAGITGADANFSVWIKRCQEAQNGSESEVWTHQSKIKYDWYQTESQVVITLMIKNVQKNDVNVEFSEKELSALVKLPSGEDYNLKLELLHPIIPEQSTFKVLSTKIEIKLKKPEAVRWEKLEGQGDVPTPKQFVADVKNLYPSSSPYTRNWDKLVGEIKEEEKNEKLEGDAALNRLFQQIYSDGSDEVKRAMNKSFMESGGTVLSTNWSDVGKRKVEINPPDDMEWKKY
B3: Sodium-dependent neutral amino acid transporter B(0)AT2 (protein, UniProt Q9H2J7-1 1-730)
chain: MPKNSKVVKRELDDDVTESVKDLLSNEDAADDAFKTSELIVDGQEEKDTDVEEGSEVEDERPAWNSKLQYILAQVGFSVGLGNVWRFPYLCQKNGGGAYLLPYLILLMVIGIPLFFLELSVGQRIRRGSIGVWNYISPKLGGIGFASCVVCYFVALYYNVIIGWSLFYFSQSFQQPLPWDQCPLVKNASHTFVEPECEQSSATTYYWYREALNISSSISESGGLNWKMTICLLAAWVMVCLAMIKGIQSSGKIIYFSSLFPYVVLICFLIRAFLLNGSIDGIRHMFTPKLEIMLEPKVWREAATQVFFALGLGFGGVIAFSSYNKRDNNCHFDAVLVSFINFFTSVLATLVVFAVLGFKANVINEKCITQNSETIMKFLKMGNISQDIIPHHINLSTVTAEDYHLVYDIIQKVKEEEFPALHLNSCKIEEELNKAVQGTGLAFIAFTEAMTHFPASPFWSVMFFLMLVNLGLGSMFGTIEGIVTPIVDTFKVRKEILTVICCLLAFCIGLIFVQRSGNYFVTMFDDYSATLPLLIVVILENIAVCFVYGIDKFMEDLKDMLGFAPSRYYYYMWKYISPLMLLSLLIASVVNMGLSPPGYNAWIEDKASEEFLSYPTWGLVVCVSLVVFAILPVPVVFIVRRFNLIDDSSGNLASVTYKRGRVLKEPVNLEGDDTSLIHGKIPSEMPSPNFGKNIYRKQSGSPTLDTAPNGRYGIGYLMADIMPDMPESDL
B4: Signal recognition particle receptor subunit alpha (protein, UniProt P08240-1 1-638)
chain: MLDFFTIFSKGGLVLWCFQGVSDSCTGPVNALIRSVLLQERGGNNSFTHEALTLKYKLDNQFELVFVVGFQKILTLTYVDKLIDDVHRLFRDKYRTEIQQQSALSLLNGTFDFQNDFLRLLREAEESSKIRAPTTMKKFEDSEKAKKPVRSMIETRGEKPKEKAKNSKKKGAKKEGSDGPLATSKPVPAEKSGLPVGPENGVELSKEELIRRKREEFIQKHGRGMEKSNKSTKSDAPKEKGKKAPRVWELGGCANKEVLDYSTPTTNGTPEAALSEDINLIRGTGSGGQLQDLDCSSSDDEGAAQNSTKPSATKGTLGGMFGMLKGLVGSKSLSREDMESVLDKMRDHLIAKNVAADIAVQLCESVANKLEGKVMGTFSTVTSTVKQALQESLVQILQPQRRVDMLRDIMDAQRRQRPYVVTFCGVNGVGKSTNLAKISFWLLENGFSVLIAACDTFRAGAVEQLRTHTRRLSALHPPEKHGGRTMVQLFEKGYGKDAAGIAMEAIAFARNQGFDVVLVDTAGRMQDNAPLMTALAKLITVNTPDLVLFVGEALVGNEAVDQLVKFNRALADHSMAQTPRLIDGIVLTKFDTIDDKVGAAISMTYITSKPIVFVGTGQTYCDLRSLNAKAVVAALMKA
B5: Metalloreductase STEAP3 (protein, UniProt Q658P3-2 1-498)
chain: MSHQPAVATKMPEEMDKPLISLHLVDSDSSLAKVPDEAPKVGILGSGDFARSLATRLVGSGFKVVVGSRNPKRTARLFPSAAQVTFQEEAVSSPEVIFVAVFREHYSSLCSLSDQLAGKILVDVSNPTEQEHLQHRESNAEYLASLFPTCTVVKAFNVISAWTLQAGPRDGNRQVPICGDQPEAKRAVSEMALAMGFMPVDMGSLASAWEVEAMPLRLLPAWKVPTLLALGLFVCFYAYNFVRDVLQPYVQESQNKFFKLPVSVVNTTLPCVAYVLLSLVYLPGVLAAALQLRRGTKYQRFPDWLDHWLQHRKQIGLLSFFCAALHALYSFCLPLRRAHRYDLVNLAVKQVLANKSHLWVEEEVWRMEIYLSLGVLALGTLSLLAVTSLPSIANSLNWREFSFVQSSLGFVALVLSTLHTLTYGWTRAFEESRYKFYLPPTFTLTLLVPCVVILAKALFLLPCISRRLARIRRGWERESTIKFTLPTDHALAEKTSHV

target: LRRC8A-BirA*-HA fusion protein (human) (UniProt Q8IWT6); assay: proximity labelling; BioID: HEK293 cells stably expressing LRRC8A-BirA*-HA (two clones), 50 uM biotin 24 h, RIPA lysis, streptavidin bead pull-down of biotinylated proteins, TMT labelling and LC-MS/MS; hits: FDR <= 0.05 and fold change >= 2 against the no-biotin control

Row | binding | Binder
1 | binds | B1
2 | binds | B2
3 | binds | B3
4 | binds | B4
5 | binds | B5
